Experimental data: US20110038885A1 (priority 2007, published 2011)
Numbered stars: 1 amine (or outer) side, 2 acyl side, 3 side chain; on linkers, the order of the positions; unused ones are H or OH. Bridge positions count the residues as written; N and C are the ends. Square brackets hold non-standard residues; d marks the D form. Ends that are not written are not given here. * marks the point of attachment. NH(CH2)8CO = O=C(CCCCCCCCN[*:1])[*:2]; Diglycolyl = O=C(COCC(=O)[*:2])[*:1]; Glutaryl = O=C(CCCC(=O)[*:2])[*:1]; Myristoyl = CCCCCCCCCCCCCC(=O)*; d(pGlu) = O=C1CC[C@H](C(=O)O)N1; pGlu = O=C1CC[C@@H](C(=O)O)N1; Suc = O=C(CCC(=O)[*:2])[*:1]; X3 = O=C(/C=C/c1ccc(Cl)cc1)*; Lauroyl = CCCCCCCCCCCC(=O)*; X4 = O=C(c1cc2ccccc2[nH]1)*; X1 = O=C(CN1CCN(CCO)CC1)*; Octanoyl = CCCCCCCC(=O)*; Orn = NCCC[C@H](N)C(=O)O; X5 = O=C(/C=C/c1ccccc1)*; Dap = NC[C@H](N)C(=O)O; Aoc = NCCCCCCCC(=O)O; Piv = CC(C)(C)C(=O)*; Ahp = NCCCCCCC(=O)O; Ahx = NCCCCCC(=O)O; Ava = NCCCCC(=O)O; βAla = NCCC(=O)O

Assay: general procedure: Fmoc solid-phase peptide synthesis; Rink Amide MBHA resin (0.58 mmol/g or 0.78 mmol/g); Wang resin for C-terminal acids; DIC/HOBt
Conditions: whole synthesis; for purity (crude or final not stated) / final HPLC purity: analytical HPLC; for purity (crude or final not stated): scale of the general procedure 0.090 mmol

KWIQ[Orn]-NH2 (linker N-5 via Diglycolyl; SMILES CC[C@H](C)[C@@H]1NC(=O)[C@H](Cc2c[nH]c3ccccc23)NC(=O)[C@H](CCCCN)NC(=O)COCC(=O)NCCC[C@@H](C(N)=O)NC(=O)[C@H](CCC(N)=O)NC1=O)
purity (crude or final not stated): 99.1%

KWIQ[Orn]-NH2 (linker N-5 via Glutaryl; SMILES CC[C@H](C)[C@@H]1NC(=O)[C@H](Cc2c[nH]c3ccccc23)NC(=O)[C@H](CCCCN)NC(=O)CCCC(=O)NCCC[C@@H](C(N)=O)NC(=O)[C@H](CCC(N)=O)NC1=O)
final HPLC purity (scale 0.09 mmol): 99%
crude mass (scale 0.09 mmol): ˜65 mg
isolated mass (scale 0.09 mmol): 12 mg

KWIQ[Orn]-NH2 (linker N-5 via Suc; SMILES CC[C@H](C)[C@@H]1NC(=O)[C@H](Cc2c[nH]c3ccccc23)NC(=O)[C@H](CCCCN)NC(=O)CCC(=O)NCCC[C@@H](C(N)=O)NC(=O)[C@H](CCC(N)=O)NC1=O)
purity (crude or final not stated): 97%

Lauroyl-CKWIQC-NH2 (disulfide 1-6; SMILES CCCCCCCCCCCC(=O)N[C@H]1CSSC[C@@H](C(N)=O)NC(=O)[C@H](CCC(N)=O)NC(=O)[C@H]([C@@H](C)CC)NC(=O)[C@H](Cc2c[nH]c3ccccc23)NC(=O)[C@H](CCCCN)NC1=O)
purity (crude or final not stated): 99.9%

Octanoyl-CKWIQC-NH2 (disulfide 1-6; SMILES CCCCCCCC(=O)N[C@H]1CSSC[C@@H](C(N)=O)NC(=O)[C@H](CCC(N)=O)NC(=O)[C@H]([C@@H](C)CC)NC(=O)[C@H](Cc2c[nH]c3ccccc23)NC(=O)[C@H](CCCCN)NC1=O)
purity (crude or final not stated): 92%

Octanoyl-[Dap][dC][dQ][dI][dW][dK][dQ][dK][dP][dD][dL][dC]-NH2 (disulfide 2-12; SMILES CCCCCCCC(=O)N[C@@H](CN)C(=O)N[C@@H]1CSSC[C@H](C(N)=O)NC(=O)[C@@H](CC(C)C)NC(=O)[C@@H](CC(=O)O)NC(=O)[C@H]2CCCN2C(=O)[C@@H](CCCCN)NC(=O)[C@@H](CCC(N)=O)NC(=O)[C@@H](CCCCN)NC(=O)[C@@H](Cc2c[nH]c3ccccc23)NC(=O)[C@@H]([C@H](C)CC)NC(=O)[C@@H](CCC(N)=O)NC1=O)
purity (crude or final not stated): 99%

Piv-CKWIQC-NH2 (disulfide 1-6; SMILES CC[C@H](C)[C@@H]1NC(=O)[C@H](Cc2c[nH]c3ccccc23)NC(=O)[C@H](CCCCN)NC(=O)[C@@H](NC(=O)C(C)(C)C)CSSC[C@@H](C(N)=O)NC(=O)[C@H](CCC(N)=O)NC1=O)
purity (crude or final not stated): 93%

X1-[dC][dQ][dI][dW][dK][dQ][dK][dP][dD][dL][dC]-NH2 (disulfide 1-11; SMILES CC[C@@H](C)[C@H]1NC(=O)[C@@H](CCC(N)=O)NC(=O)[C@H](NC(=O)CN2CCN(CCO)CC2)CSSC[C@H](C(N)=O)NC(=O)[C@@H](CC(C)C)NC(=O)[C@@H](CC(=O)O)NC(=O)[C@H]2CCCN2C(=O)[C@@H](CCCCN)NC(=O)[C@@H](CCC(N)=O)NC(=O)[C@@H](CCCCN)NC(=O)[C@@H](Cc2c[nH]c3ccccc23)NC1=O)
purity (crude or final not stated): 99%

X3-CKWIQC-NH2 (disulfide 1-6; SMILES CC[C@H](C)[C@@H]1NC(=O)[C@H](Cc2c[nH]c3ccccc23)NC(=O)[C@H](CCCCN)NC(=O)[C@@H](NC(=O)/C=C/c2ccc(Cl)cc2)CSSC[C@@H](C(N)=O)NC(=O)[C@H](CCC(N)=O)NC1=O)
purity (crude or final not stated): 96%

X4-CKWIQC-NH2 (disulfide 1-6; SMILES CC[C@H](C)[C@@H]1NC(=O)[C@H](Cc2c[nH]c3ccccc23)NC(=O)[C@H](CCCCN)NC(=O)[C@@H](NC(=O)c2cc3ccccc3[nH]2)CSSC[C@@H](C(N)=O)NC(=O)[C@H](CCC(N)=O)NC1=O)
purity (crude or final not stated): 96.2%

X5-CKWIQC-NH2 (disulfide 1-6; SMILES CC[C@H](C)[C@@H]1NC(=O)[C@H](Cc2c[nH]c3ccccc23)NC(=O)[C@H](CCCCN)NC(=O)[C@@H](NC(=O)/C=C/c2ccccc2)CSSC[C@@H](C(N)=O)NC(=O)[C@H](CCC(N)=O)NC1=O)
purity (crude or final not stated): 95%

[Ahp]KWIQD-NH2 (lactam N-6; SMILES CC[C@H](C)[C@@H]1NC(=O)[C@H](Cc2c[nH]c3ccccc23)NC(=O)[C@H](CCCCN)NC(=O)CCCCCCNC(=O)C[C@@H](C(N)=O)NC(=O)[C@H](CCC(N)=O)NC1=O)
purity (crude or final not stated): 93.9%

[Ahp]KWIQE-NH2 (lactam N-6; SMILES CC[C@H](C)[C@@H]1NC(=O)[C@H](Cc2c[nH]c3ccccc23)NC(=O)[C@H](CCCCN)NC(=O)CCCCCCNC(=O)CC[C@@H](C(N)=O)NC(=O)[C@H](CCC(N)=O)NC1=O)
purity (crude or final not stated): 90%

[Ahx]KWIQD-NH2 (lactam N-6; SMILES CC[C@H](C)[C@@H]1NC(=O)[C@H](Cc2c[nH]c3ccccc23)NC(=O)[C@H](CCCCN)NC(=O)CCCCCNC(=O)C[C@@H](C(N)=O)NC(=O)[C@H](CCC(N)=O)NC1=O)
final HPLC purity (scale 0.09 mmol): greater than 77%
crude mass (scale 0.09 mmol): ˜65 mg
isolated mass (scale 0.09 mmol): 12.3 mg
isolated yield (scale 0.09 mmol): 17% yield

[Ahx]KWIQE-NH2 (lactam N-6; SMILES CC[C@H](C)[C@@H]1NC(=O)[C@H](Cc2c[nH]c3ccccc23)NC(=O)[C@H](CCCCN)NC(=O)CCCCCNC(=O)CC[C@@H](C(N)=O)NC(=O)[C@H](CCC(N)=O)NC1=O)
purity (crude or final not stated): 94.4%

[Aoc]KWIQD-NH2 (lactam N-6; SMILES CC[C@H](C)[C@@H]1NC(=O)[C@H](Cc2c[nH]c3ccccc23)NC(=O)[C@H](CCCCN)NC(=O)CCCCCCCNC(=O)C[C@@H](C(N)=O)NC(=O)[C@H](CCC(N)=O)NC1=O)
purity (crude or final not stated): 80.8%

[Aoc]KWIQE-NH2 (lactam N-6; SMILES CC[C@H](C)[C@@H]1NC(=O)[C@H](Cc2c[nH]c3ccccc23)NC(=O)[C@H](CCCCN)NC(=O)CCCCCCCNC(=O)CC[C@@H](C(N)=O)NC(=O)[C@H](CCC(N)=O)NC1=O)
purity (crude or final not stated): 91.8%

[Ava]KWIQD-NH2 (lactam N-6; SMILES CC[C@H](C)[C@@H]1NC(=O)[C@H](Cc2c[nH]c3ccccc23)NC(=O)[C@H](CCCCN)NC(=O)CCCCNC(=O)C[C@@H](C(N)=O)NC(=O)[C@H](CCC(N)=O)NC1=O)
purity (crude or final not stated): 91.4%

[Ava]KWIQE-NH2 (lactam N-6; SMILES CC[C@H](C)[C@@H]1NC(=O)[C@H](Cc2c[nH]c3ccccc23)NC(=O)[C@H](CCCCN)NC(=O)CCCCNC(=O)CC[C@@H](C(N)=O)NC(=O)[C@H](CCC(N)=O)NC1=O)
purity (crude or final not stated): 95.4%

[Ava][dQ][dI][dW][dK][dD]-NH2 (lactam N-6; SMILES CC[C@@H](C)[C@H]1NC(=O)[C@@H](CCC(N)=O)NC(=O)CCCCNC(=O)C[C@H](C(N)=O)NC(=O)[C@@H](CCCCN)NC(=O)[C@@H](Cc2c[nH]c3ccccc23)NC1=O)
purity (crude or final not stated): 99%

[NH(CH2)8CO]KWIQD-NH2 (lactam N-6; SMILES CC[C@H](C)[C@@H]1NC(=O)[C@H](Cc2c[nH]c3ccccc23)NC(=O)[C@H](CCCCN)NC(=O)CCCCCCCCNC(=O)C[C@@H](C(N)=O)NC(=O)[C@H](CCC(N)=O)NC1=O)
purity (crude or final not stated): 96.4%

[NH(CH2)8CO]KWIQE-NH2 (lactam N-6; SMILES CC[C@H](C)[C@@H]1NC(=O)[C@H](Cc2c[nH]c3ccccc23)NC(=O)[C@H](CCCCN)NC(=O)CCCCCCCCNC(=O)CC[C@@H](C(N)=O)NC(=O)[C@H](CCC(N)=O)NC1=O)
purity (crude or final not stated): 92%

[aminoPeg10-oxaglutaryl]2-c(D-Cys-D-Gln-D-Ile-D-Trp-D-Lys-D-Gln-D-Lys-D-Pro-D-Asp-D-Leu-D-Cys)-NH2
purity (crude or final not stated): 95%

[aminoPeg10-oxaglutaryl]-c(D-Cys-D-Gln-D-Ile-D-Trp-D-Lys-D-Gln-D-Lys-D-Pro-D-Asp-D-Leu-D-Cys)-NH2
purity (crude or final not stated): 95%

[d(pGlu)]CKWIQC-NH2 (disulfide 2-7; SMILES CC[C@H](C)[C@@H]1NC(=O)[C@H](Cc2c[nH]c3ccccc23)NC(=O)[C@H](CCCCN)NC(=O)[C@@H](NC(=O)[C@H]2CCC(=O)N2)CSSC[C@@H](C(N)=O)NC(=O)[C@H](CCC(N)=O)NC1=O)
purity (crude or final not stated): 93.5%

[dK](Lauroyl)DCLDPKQKWIQC-NH2 (disulfide 3-13)
purity (crude or final not stated): 93%

[dK](Myristoyl)[dD]CLDPKQKWIQC-NH2 (disulfide 3-13)
purity (crude or final not stated): 85%

[dK](Octanoyl)[dD]CLDPKQKWIQC-NH2 (disulfide 3-13)
purity (crude or final not stated): 92%

[pGlu]CKWIQC-NH2 (disulfide 2-7; SMILES CC[C@H](C)[C@@H]1NC(=O)[C@H](Cc2c[nH]c3ccccc23)NC(=O)[C@H](CCCCN)NC(=O)[C@@H](NC(=O)[C@@H]2CCC(=O)N2)CSSC[C@@H](C(N)=O)NC(=O)[C@H](CCC(N)=O)NC1=O)
purity (crude or final not stated): 89.5%

[βAla]KWIQE-NH2 (lactam N-6; SMILES CC[C@H](C)[C@@H]1NC(=O)[C@H](Cc2c[nH]c3ccccc23)NC(=O)[C@H](CCCCN)NC(=O)CCNC(=O)CC[C@@H](C(N)=O)NC(=O)[C@H](CCC(N)=O)NC1=O)
purity (crude or final not stated): 95.9%

[βAla]KWQD-NH2 (lactam N-5; SMILES NCCCC[C@@H]1NC(=O)CCNC(=O)C[C@@H](C(N)=O)NC(=O)[C@H](CCC(N)=O)NC(=O)[C@H](Cc2c[nH]c3ccccc23)NC1=O)
purity (crude or final not stated): 99%

[βAla][dQ][dI][dW][dK][dD]-NH2 (lactam N-6; SMILES CC[C@@H](C)[C@H]1NC(=O)[C@@H](CCC(N)=O)NC(=O)CCNC(=O)C[C@H](C(N)=O)NC(=O)[C@@H](CCCCN)NC(=O)[C@@H](Cc2c[nH]c3ccccc23)NC1=O)
purity (crude or final not stated): 88%

[βAla][dQ][dI][dW][dK][dQ][dK][dP][dD][dL][dD]-NH2 (lactam N-11; SMILES CC[C@@H](C)[C@H]1NC(=O)[C@@H](CCC(N)=O)NC(=O)CCNC(=O)C[C@H](C(N)=O)NC(=O)[C@@H](CC(C)C)NC(=O)[C@@H](CC(=O)O)NC(=O)[C@H]2CCCN2C(=O)[C@@H](CCCCN)NC(=O)[C@@H](CCC(N)=O)NC(=O)[C@@H](CCCCN)NC(=O)[C@@H](Cc2c[nH]c3ccccc23)NC1=O)
purity (crude or final not stated): 96%

c(Adipoyl-Lys-Trp-Ile-Gln-Dab)-NH2
purity (crude or final not stated): 99.9%

c(Adipoyl-Lys-Trp-Ile-Gln-Dap)-NH2
purity (crude or final not stated): 99.9%

c(Adipoyl-Lys-Trp-Ile-Gln-Lys)-NH2
purity (crude or final not stated): 99.9%

c(Adipoyl-Lys-Trp-Ile-Gln-Orn)-NH2
purity (crude or final not stated): 99.9%
